{
  "sequences": {"note": "Chains of the proteins cited; added tags and fusions are not shown. Lines headed by an entry give the natural chain unless they say otherwise; changes in a name come on top. Residues count along the entry.", "UniProt Q15788, residues 595-780": "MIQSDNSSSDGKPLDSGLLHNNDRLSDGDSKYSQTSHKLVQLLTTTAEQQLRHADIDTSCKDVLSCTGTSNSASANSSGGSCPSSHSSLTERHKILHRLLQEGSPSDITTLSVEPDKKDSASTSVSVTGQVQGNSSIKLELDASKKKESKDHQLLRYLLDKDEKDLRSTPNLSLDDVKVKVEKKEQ", "UniProt P10828": "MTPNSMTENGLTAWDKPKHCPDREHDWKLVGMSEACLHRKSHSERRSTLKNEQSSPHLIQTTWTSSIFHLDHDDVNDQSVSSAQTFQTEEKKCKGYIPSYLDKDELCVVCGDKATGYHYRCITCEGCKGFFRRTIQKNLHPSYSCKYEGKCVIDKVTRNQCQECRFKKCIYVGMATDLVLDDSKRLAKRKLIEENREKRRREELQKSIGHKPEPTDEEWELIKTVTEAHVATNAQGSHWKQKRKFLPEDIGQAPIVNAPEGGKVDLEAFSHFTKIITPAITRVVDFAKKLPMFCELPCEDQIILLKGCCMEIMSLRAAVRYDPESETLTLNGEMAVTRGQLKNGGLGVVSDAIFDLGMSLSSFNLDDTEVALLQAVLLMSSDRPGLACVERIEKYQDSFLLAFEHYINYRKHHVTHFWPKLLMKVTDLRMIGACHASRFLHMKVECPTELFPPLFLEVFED"},
  "source": "paper PMC3040602",
  "key": {"[1]": {"target": "T1, Gal4–N-CoR (nuclear receptor corepressor; aa 1579–2454) (UniProt Q60974)", "T1 sequence": "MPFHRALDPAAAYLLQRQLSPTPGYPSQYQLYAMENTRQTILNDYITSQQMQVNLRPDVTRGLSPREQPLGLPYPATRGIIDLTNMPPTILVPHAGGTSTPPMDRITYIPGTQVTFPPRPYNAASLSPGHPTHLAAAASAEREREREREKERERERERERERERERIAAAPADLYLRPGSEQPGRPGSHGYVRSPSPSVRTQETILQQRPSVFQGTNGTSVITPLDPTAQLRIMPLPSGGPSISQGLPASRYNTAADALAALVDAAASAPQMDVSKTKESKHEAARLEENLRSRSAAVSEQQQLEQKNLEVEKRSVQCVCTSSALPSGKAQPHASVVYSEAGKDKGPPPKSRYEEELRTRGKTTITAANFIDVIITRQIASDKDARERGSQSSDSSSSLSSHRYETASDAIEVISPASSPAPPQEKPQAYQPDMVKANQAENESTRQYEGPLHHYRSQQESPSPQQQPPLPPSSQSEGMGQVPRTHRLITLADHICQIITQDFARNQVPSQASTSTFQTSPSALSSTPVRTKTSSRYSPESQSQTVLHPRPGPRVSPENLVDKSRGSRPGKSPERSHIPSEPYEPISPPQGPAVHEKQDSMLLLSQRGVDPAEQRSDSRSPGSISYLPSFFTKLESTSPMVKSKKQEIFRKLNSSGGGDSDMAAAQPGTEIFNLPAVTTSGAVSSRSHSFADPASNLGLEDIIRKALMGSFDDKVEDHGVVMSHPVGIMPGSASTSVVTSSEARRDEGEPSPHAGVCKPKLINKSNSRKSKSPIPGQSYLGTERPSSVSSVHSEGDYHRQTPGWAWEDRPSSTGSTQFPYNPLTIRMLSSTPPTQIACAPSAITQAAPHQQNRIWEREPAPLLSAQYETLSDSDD", "experiment": "two-hybrid; mammalian two-hybrid in CV-1 cells, Gal4-DBD fusion and VP16 fusion with 5× UAS-TK-LUC reporter; without T3, with or without BDE209"}, "[2]": {"target": "Gal4–DNA binding domain (DBD)-fused steroid receptor coactivator-1–nuclear binding domain-1 (SRC-1–NBD-1; aa 595–780) (UniProt Q15788)", "experiment": "two-hybrid; mammalian two-hybrid in CV-1 cells, Gal4-DBD fusion and VP16 fusion with 5× UAS-TK-LUC reporter; with T3 (10^-7 M), with or without BDE209"}, "[3]": {"target": "T1, Gal4–N-CoR (nuclear receptor corepressor; aa 1579–2454)", "experiment": "two-hybrid; mammalian two-hybrid in CV-1 cells, Gal4-DBD fusion and VP16 fusion with 5× UAS-TK-LUC reporter; with T3 (10^-7 M), with or without BDE209"}},
  "note": "No constants are given. Whether binding was seen depends on the method and setting. For part of these data: Binding can be weak; no strength is given.",
  "data": [
    {"substance": "VP16-TRβ1–ligand binding domain (LBD) (from UniProt P10828) (domain or fragment)", "values": [
      {"measurement": "binding", "setting": "[1]", "result": "binds"},
      {"measurement": "binding", "setting": "[2]", "result": "binds"},
      {"measurement": "binding", "setting": "[3]", "result": "no binding (only with T3 (10^-7 M))"}
    ]}
  ]
}
